Our source for the binding values is publication doi:10.1101/2024.02.21.581502.

Results are given in words; binding and its absence hold for the method and conditions named. For some assays here: Binding can be weak; no strength is given. For some assays here: Sequences can lack the tags named with a protein. For some assays here: Binding seen in cells or lysates may run through a third protein.

The target in assay [1] is T1, SlPsbS (tomato (Solanum lycopersicum)) (UniProt P54773).
T1 sequence: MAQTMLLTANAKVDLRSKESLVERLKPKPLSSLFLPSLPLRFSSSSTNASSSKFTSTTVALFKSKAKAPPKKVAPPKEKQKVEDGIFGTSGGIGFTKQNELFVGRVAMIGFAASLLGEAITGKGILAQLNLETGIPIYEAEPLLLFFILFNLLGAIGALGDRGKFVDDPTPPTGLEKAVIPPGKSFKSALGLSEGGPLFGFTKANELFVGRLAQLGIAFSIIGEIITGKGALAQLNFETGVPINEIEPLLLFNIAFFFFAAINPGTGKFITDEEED
Briefly: two-hybrid.

Assay [2] deals with T2, SlPsbS-3xFLAG (tomato (Solanum lycopersicum)) (UniProt P54773).
T2 sequence: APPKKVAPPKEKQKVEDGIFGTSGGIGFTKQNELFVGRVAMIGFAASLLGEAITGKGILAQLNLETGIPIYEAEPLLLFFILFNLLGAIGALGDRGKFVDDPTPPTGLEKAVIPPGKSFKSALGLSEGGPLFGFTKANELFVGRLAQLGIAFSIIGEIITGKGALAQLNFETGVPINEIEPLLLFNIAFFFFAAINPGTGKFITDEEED
Briefly: co-IP.

Assay [3] deals with SlCV-GST (tomato (Solanum lycopersicum)). Briefly: pull-down.
Assay [4] has as its target SlCSN5A-GST (tomato (Solanum lycopersicum)). Briefly: pull-down.
Assay [5] has as its target SlCSN5A-nLUC (tomato (Solanum lycopersicum)). Kind of assay: split reporter.
The target in assay [6] is SlCSN5A-nYFP (tomato (Solanum lycopersicum)). Briefly: split reporter.
Assay [7] deals with SlCSN5A fused to the GAL4 DNA binding domain (tomato (Solanum lycopersicum)). Briefly: two-hybrid.
For assay [8], the target named is ICA domain of SlCSN5A (tomato (Solanum lycopersicum)). Briefly: two-hybrid.
Assay [9] has as its target MPN domain of SlCSN5A (tomato (Solanum lycopersicum)). Kind of assay: two-hybrid.
In assay [10] the target is SlCV fused to the GAL4 DNA binding domain (tomato (Solanum lycopersicum)). Kind of assay: two-hybrid.

Regarding “COP9 signalosome subunit 5A (SlCSN5A) (tomato (Solanum lycopersicum))”, the binding result in assay [1] was “binds”. “SlCV-GFP (tomato (Solanum lycopersicum))”: the binding result in assay [2] is reported as “binds”. Turning to “SlCSN5A-GFP (tomato (Solanum lycopersicum))”, the binding entry in [2] is listed as “binds”.

B1: SlPsbS-HIS (protein, UniProt P54773 68-276)
chain: APPKKVAPPKEKQKVEDGIFGTSGGIGFTKQNELFVGRVAMIGFAASLLGEAITGKGILAQLNLETGIPIYEAEPLLLFFILFNLLGAIGALGDRGKFVDDPTPPTGLEKAVIPPGKSFKSALGLSEGGPLFGFTKANELFVGRLAQLGIAFSIIGEIITGKGALAQLNFETGVPINEIEPLLLFNIAFFFFAAINPGTGKFITDEEED
As for B1, the binding result in [3] and in assay [4] was “binds” in each case.

B2: cLUC-SlPsbS (protein, UniProt P54773 68-276)
chain: APPKKVAPPKEKQKVEDGIFGTSGGIGFTKQNELFVGRVAMIGFAASLLGEAITGKGILAQLNLETGIPIYEAEPLLLFFILFNLLGAIGALGDRGKFVDDPTPPTGLEKAVIPPGKSFKSALGLSEGGPLFGFTKANELFVGRLAQLGIAFSIIGEIITGKGALAQLNFETGVPINEIEPLLLFNIAFFFFAAINPGTGKFITDEEED
Take B2: the binding result in [5] is reported as “binds”.

B3: cYFP-SlPsbS (protein, UniProt P54773 68-276)
chain: APPKKVAPPKEKQKVEDGIFGTSGGIGFTKQNELFVGRVAMIGFAASLLGEAITGKGILAQLNLETGIPIYEAEPLLLFFILFNLLGAIGALGDRGKFVDDPTPPTGLEKAVIPPGKSFKSALGLSEGGPLFGFTKANELFVGRLAQLGIAFSIIGEIITGKGALAQLNFETGVPINEIEPLLLFNIAFFFFAAINPGTGKFITDEEED
In the case of B3, in assay [6], the binding entry is “binds”.

B4: SlPsbS fused to the GAL4 activation domain (protein, UniProt P54773 1-276)
chain: MAQTMLLTANAKVDLRSKESLVERLKPKPLSSLFLPSLPLRFSSSSTNASSSKFTSTTVALFKSKAKAPPKKVAPPKEKQKVEDGIFGTSGGIGFTKQNELFVGRVAMIGFAASLLGEAITGKGILAQLNLETGIPIYEAEPLLLFFILFNLLGAIGALGDRGKFVDDPTPPTGLEKAVIPPGKSFKSALGLSEGGPLFGFTKANELFVGRLAQLGIAFSIIGEIITGKGALAQLNFETGVPINEIEPLLLFNIAFFFFAAINPGTGKFITDEEED
With B4, the binding result in [7] is recorded as “binds”; in [8], “no binding”; in assay [9], “binds”; in [10] it was “binds”.
